In article PMC5792032:

How the values were obtained:
Assay in all cases: pull-down; Strep-Tactin purification of NS5A-OST from Huh7.5 cells electroporated with mJFH1-5A-OST RNA; bound resin blotted with anti-NS5A, anti-DGAT1 or anti-Rab18
[1] = target: NS5A-OST (JFH-1) P145A (hepatitis C virus, genotype 2a, JFH-1)
[2] = target: NS5A-OST (JFH-1) P35A (hepatitis C virus, genotype 2a, JFH-1)
[3] = target: NS5A-OST (JFH-1) V67A (hepatitis C virus, genotype 2a, JFH-1)

Measured: binding

B1: diacylglycerol acyltransferase-1 (protein, UniProt O75907 1-488)
chain: MGDRGSSRRRRTGSRPSSHGGGGPAAAEEEVRDAAAGPDVGAAGDAPAPAPNKDGDAGVGSGHWELRCHRLQDSLFSSDSGFSNYRGILNWCVVMLILSNARLFLENLIKYGILVDPIQVVSLFLKDPYSWPAPCLVIAANVFAVAAFQVEKRLAVGALTEQAGLLLHVANLATILCFPAAVVLLVESITPVGSLLALMAHTILFLKLFSYRDVNSWCRRARAKAASAGKKASSAAAPHTVSYPDNLTYRDLYYFLFAPTLCYELNFPRSPRIRKRFLLRRILEMLFFTQLQVGLIQQWMVPTIQNSMKPFKDMDYSRIIERLLKLAVPNHLIWLIFFYWLFHSCLNAVAELMQFGDREFYRDWWNSESVTYFWQNWNIPVHKWCIRHFYKPMLRRGSSKWMARTGVFLASAFFHEYLVSVPLRMFRLWAFTGMMAQIPLAWFVGRFFQGNYGNAAVWLSLIIGQPIAVLMYVHDYYVLNYEAPAAEA
binds: [1] | [2] | [3]

No constants are given. Whether binding was seen depends on the method and setting. In cells and extracts the contact can be indirect. A result given as binding can be weak or reduced; the word gives no strength.
